Reference: the supplement of paper PMC6418307
Single values of this set are uncertain.

System: primary mouse cortical neurons
Assay: cell health score (luciferase spike-in reads / total reads per well) (fraction); higher = fewer cellular reads, worse cell health / toxicity
Details: treatment time 24 h
[1] = 0.01 µM, sex of neuron culture: Female
[2] = 0.01 µM, sex of neuron culture: Male
[3] = 0.1 µM, sex of neuron culture: Female
[4] = 0.1 µM, sex of neuron culture: Male
[5] = 1 µM, sex of neuron culture: Female
[6] = 1 µM, sex of neuron culture: Male
[7] = 10 µM, sex of neuron culture: Female
[8] = 10 µM, sex of neuron culture: Male

Compound | cell health score [1] | cell health score [2] | cell health score [3] | cell health score [4] | cell health score [5] | cell health score [6] | cell health score [7] | cell health score [8]
CCCCNC(=O)n1c(NC(=O)OC)nc2ccccc21 [Benomyl] | 0.000823 | 0.000606 | 0.00109 | 0.000775 | 0.000819 | 0.000743 | 0.000912 | 0.000627
CC(C)N1C(=O)c2ccccc2NS1(=O)=O [Bentazone] | 0.00055 | 0.000623 | 0.000949 | 0.000634 | 0.002 | 0.000647 | 0.000781 | 0.000791
COc1ccc(-c2ccccc2)cc1NNC(=O)OC(C)C [Bifenazate] | 0.000618 | 0.000895 | 0.000735 | 0.000796 | 0.000634 | 0.000688 | 0.00112 | 0.00065
CC(C)(c1ccc(O)cc1)c1ccc(O)cc1 [Bisphenol A] | 0.000549 | 0.00078 | 0.000873 | 0.000759 | 0.000818 | 0.000668 | 0.00112 | 0.000478
OB(O)O [Boric acid] | 0.00066 | 0.00102 | 0.000879 | 0.00112 | 0.00103 | 0.000607 | 0.00139 | 0.000712
O=C(Nc1ccccc1-c1ccc(Cl)cc1)c1cccnc1Cl [Boscalid] | 0.000644 | 0.000849 | 0.000748 | 0.000721 | 0.000757 | 0.000548 | 0.000784 | 0.000559
CCC(C)n1c(=O)[nH]c(C)c(Br)c1=O (centres undefined) [Bromacil] | 0.000514 | 0.000552 | 0.00132 | 0.00109 | 0.000978 | 0.000787 | 0.00116 | 0.000513
N#Cc1cc(Br)c(O)c(Br)c1 [Bromoxynil] | 0.000464 | 0.000774 | 0.000734 | 0.000787 | 0.00103 | 0.000663 | 0.000996 | 0.000562
CC(C)N1C(=O)N(c2ccccc2)CS/C1=N\C(C)(C)C [Buprofezin] | 0.000516 | 0.00068 | 0.000737 | 0.000901 | 0.00107 | 0.00108 | 0.00106 | 0.000783
CCCCOCN(C(=O)CCl)c1c(CC)cccc1CC [Butachlor] | 0.00063 | 0.00103 | 0.000774 | 0.000892 | 0.00108 | 0.000773 | 0.00146 | 0.000557
C=CCOC(=O)C(C)(C)OC(=O)c1cc(-n2c(=O)cc(C(F)(F)F)n(C)c2=O)ccc1Cl [Butafenacil] | 0.000533 | 0.000931 | 0.00116 | 0.000835 | 0.000998 | 0.000441 | 0.000679 | 0.000681
CCC(C)Nc1c([N+](=O)[O-])cc(C(C)(C)C)cc1[N+](=O)[O-] (centres undefined) [Butralin] | 0.000536 | 0.000656 | 0.000699 | 0.000802 | 0.000762 | 0.000796 | 0.00101 | 0.000955
CCSC(=O)N(CC(C)C)CC(C)C [Butylate] | 0.000711 | 0.00128 | 0.00125 | 0.000765 | 0.000712 | 0.00059 | 0.00104 | 0.000502
Cn1c(=O)c2c(ncn2C)n(C)c1=O [Caffeine] | 0.000613 | 0.000693 | 0.000672 | 0.0008 | 0.000575 | 0.000484 | 0.000625 | 0.000548
O=C1C2CC=CCC2C(=O)N1SC(Cl)(Cl)Cl (centres undefined) [Captan] | 0.00057 | 0.000805 | 0.00085 | 0.00107 | 0.000644 | 0.000555 | 0.00143 | 0.000669
CNC(=O)Oc1cccc2ccccc12 [Carbaryl] | 0.000454 | 0.00071 | 0.00112 | 0.000927 | 0.00104 | 0.000811 | 0.00145 | 0.000427
CC1=C(C(=O)Nc2ccccc2)SCCO1 [Carboxin] | 0.000448 | 0.000851 | 0.000925 | 0.000866 | 0.000809 | 0.000485 | 0.00106 | 0.000742
CCOC(=O)C(Cl)Cc1cc(-n2nc(C)n(C(F)F)c2=O)c(F)cc1Cl (centres undefined) [Carfentrazone-ethyl] | 0.000528 | 0.00109 | 0.00111 | 0.00106 | 0.00117 | 0.00118 | 0.00128 | 0.000877
CCOP(=S)(OCC)OC(Cl)C(Cl)(Cl)Cl (centres undefined) [Chlorethoxyfos] | 0.000428 | 0.00106 | 0.000528 | 0.000837 | 0.00094 | 0.000476 | 0.00101 | 0.000668
Nc1cnn(-c2ccccc2)c(=O)c1Cl [Chloridazon] | 0.000892 | 0.00074 | 0.000824 | 0.000957 | 0.000802 | 0.000487 | 0.00113 | 0.000607
COc1cc(Cl)c(OC)cc1Cl [Chloroneb] | 0.000921 | 0.000887 | 0.000549 | 0.000662 | 0.000859 | 0.000562 | 0.000821 | 0.000527
N#Cc1c(Cl)c(Cl)c(Cl)c(C#N)c1Cl [Chlorothalonil] | 0.000502 | 0.000864 | 0.000884 | 0.000881 | 0.00117 | 0.000728 | 0.00396 | 0.00241
CC(C)OC(=O)Nc1cccc(Cl)c1 [Chlorpropham] | 0.000693 | 0.00077 | 0.000881 | 0.000938 | 0.000694 | 0.000532 | 0.00115 | 0.000811
COP(=S)(OC)Oc1nc(Cl)c(Cl)cc1Cl [Chlorpyrifos-methyl] | 0.000731 | 0.000934 | 0.000907 | 0.000741 | 0.00085 | 0.000876 | 0.00118 | 0.000503
Cc1ccccc1CO[C@@H]1C[C@@]2(C(C)C)CCC1(C)O2 [Cinmethylin] | 0.000396 | 0.000893 | 0.00158 | 0.000639 | 0.000746 | 0.00069 | 0.00109 | 0.000945
O=C(O)c1cn(C2CC2)c2cc(N3CCNCC3)c(F)cc2c1=O [Ciprofloxacin] | 0.000557 | 0.00116 | 0.000609 | 0.000682 | 0.000592 | 0.000644 | 0.000705 | 0.000511
C#CCOC(=O)[C@@H](C)Oc1ccc(Oc2ncc(Cl)cc2F)cc1 [Clodinafop-propargyl] | 0.000507 | 0.000679 | 0.00109 | 0.00071 | 0.000727 | 0.000936 | 0.00101 | 0.000631
Clc1ccccc1-c1nnc(-c2ccccc2Cl)nn1 [Clofentezine] | 0.000448 | 0.000724 | 0.000701 | 0.000836 | 0.000835 | 0.0006 | 0.000867 | 0.000494

Fetched by compound from the entries so far (two):
Compound | cell health score [1] | cell health score [2] | cell health score [3] | cell health score [4] | cell health score [5] | cell health score [6] | cell health score [7] | cell health score [8]
O=C(Nc1ccccc1-c1ccc(Cl)cc1)c1cccnc1Cl [Boscalid] | 0.000644 | 0.000849 | 0.000748 | 0.000721 | 0.000757 | 0.000548 | 0.000784 | 0.000559
CCOC(=O)C(Cl)Cc1cc(-n2nc(C)n(C(F)F)c2=O)c(F)cc1Cl (centres undefined) [Carfentrazone-ethyl] | 0.000528 | 0.00109 | 0.00111 | 0.00106 | 0.00117 | 0.00118 | 0.00128 | 0.000877
